{"source": "patent US3996150A", "about": "“Ester compounds” (Lever Brothers Company, priority 1975, dated 1976)", "assay": "Terg-O-Tometer stain removal test of detergent product containing the detergent solvent, rated visually", "design": "key: 0: complete removal; 1: Very slight remaining stain; 2: Slight remaining stain; 3: Moderate stain removal; 4: Poor stain removal; 5: Very poor stain removal; 6: Equal to original stain", "conditions": "4.0% detergent solvent in detergent product; 5% solution 15 min, then 20 min wash at 0.144%; 120° F, 180 ppm hardness", "description": "Four Dacron/cotton (65-35%) Khaki permanent press (Pants weight) test pieces (41/2 inches×6 inches) are first soiled by adding 3 drops of dirty crankcase motor oil on the center of the cloth and the stain allowed to set for one hour. The test cloths are then washed in the Terg-O-Tometerat 120° F, 180 ppm (2:1 Ca^+^+/Mg^+^+) hardness, 90 cycles per minute agitation, with a 5% solution of the detergent product described below (i.e., 50 g/liter) for 15 minutes and then hand squeezed to remove excess water. Finally the cloths are given a 20 minute wash at the standard use level (e.g. 0.144%) under the same conditions followed by a 1 minute rinse. After drying the washed cloths, the degree of stain removal is rated visually according to the scale below:\n1 = Very slight remaining stain\n2 = Slight remaining stain\n3 = Moderate stain removal\n5 = Very poor stain removal\n6 = Equal to original stain\nTen such formulations utilizing the following \"Detergent Solvents\" were prepared and evaluated as described above: […]", "note": "At least one structure is not confirmed: it was looked up by name or label, or the drawing left a doubt.", "data": [{"compound": "CCCCCCCCCCOC(=O)COC(CC(=O)OCCCCCCCCCC)C(=O)OCCCCCCCCCC", "note": "(stereo not shown) [I, tridecyl carboxymethyloxysuccinate]", "values": [{"measurement": "Visual Grading Code (degree of stain removal)", "value": 2}]}]}
